According to article PMC9443943:
No constants are given. Whether binding was seen depends on the method and setting. In cells and extracts the contact can be indirect. Some binding calls cover weakened binding; strength is not graded here. For some of these results: Where a sequence is shown, tags or fusion partners need not be part of it.

The chains behind the UniProt entries cited, without tags or fusion partners.
UniProt O14894: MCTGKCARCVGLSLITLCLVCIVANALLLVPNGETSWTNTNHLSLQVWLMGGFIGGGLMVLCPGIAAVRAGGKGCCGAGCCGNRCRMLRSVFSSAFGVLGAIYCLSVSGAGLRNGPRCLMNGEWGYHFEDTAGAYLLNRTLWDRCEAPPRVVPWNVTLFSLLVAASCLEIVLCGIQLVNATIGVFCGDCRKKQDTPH
UniProt P11166: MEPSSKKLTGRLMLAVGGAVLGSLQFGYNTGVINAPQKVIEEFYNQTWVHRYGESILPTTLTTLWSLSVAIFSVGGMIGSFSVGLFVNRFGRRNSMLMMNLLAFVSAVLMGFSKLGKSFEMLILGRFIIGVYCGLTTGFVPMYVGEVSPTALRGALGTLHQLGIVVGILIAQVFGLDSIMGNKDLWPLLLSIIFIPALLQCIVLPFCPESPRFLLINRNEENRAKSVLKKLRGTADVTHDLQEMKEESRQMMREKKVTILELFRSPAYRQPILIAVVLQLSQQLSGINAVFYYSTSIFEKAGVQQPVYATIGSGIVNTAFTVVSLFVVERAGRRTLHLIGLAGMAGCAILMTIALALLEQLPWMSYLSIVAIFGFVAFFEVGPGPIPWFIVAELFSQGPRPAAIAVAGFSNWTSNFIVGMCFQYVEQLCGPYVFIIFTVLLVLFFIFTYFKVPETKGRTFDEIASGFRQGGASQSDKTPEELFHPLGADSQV

T1: CD151, Strep-tagged (UniProt P48509)
T1 sequence: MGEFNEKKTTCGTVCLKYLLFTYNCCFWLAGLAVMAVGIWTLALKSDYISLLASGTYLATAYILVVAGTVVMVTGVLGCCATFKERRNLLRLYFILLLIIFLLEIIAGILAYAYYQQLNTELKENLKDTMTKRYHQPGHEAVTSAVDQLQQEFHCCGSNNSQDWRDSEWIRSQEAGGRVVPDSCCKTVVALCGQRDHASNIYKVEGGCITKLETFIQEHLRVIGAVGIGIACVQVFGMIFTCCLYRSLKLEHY

T2: TM4SF18, Strep-tagged (UniProt Q96CE8)
T2 sequence: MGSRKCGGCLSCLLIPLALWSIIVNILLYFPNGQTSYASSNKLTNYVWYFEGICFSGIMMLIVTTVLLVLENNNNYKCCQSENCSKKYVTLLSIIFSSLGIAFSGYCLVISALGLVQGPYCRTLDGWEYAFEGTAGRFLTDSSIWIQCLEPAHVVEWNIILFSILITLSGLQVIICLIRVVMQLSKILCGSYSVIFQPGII


How the values were obtained:
[1] = target: TM4SF5 in SNU449 hepatocytes (human) (UniProt O14894); assay: co-IP; SNU449 hepatocytes after FBS repletion; who was precipitated is not told
[2] = target: TM4SF5 in SNU449 hepatocytes (human) (UniProt O14894); assay: co-IP; SNU449 hepatocytes after glucose repletion; who was precipitated is not told
[3] = target: TM4SF5 in SNU449 hepatocytes (human) (UniProt O14894); assay: co-IP; SNU449 hepatocytes; immunoblot of precipitates; amino acid or arginine repletion; who was precipitated is not told
[4] = target: TM4SF5-STrEP (transmembrane 4 L six family member 5, Strep-tagged) (human) (UniProt O14894); assay: co-IP; HEK293FT transfected 48 h; lysis in 40 mM HEPES pH 7.4, 150 mM NaCl, 1 mM EDTA, 0.5% Triton X-100; Strep-conjugated agarose beads, 4 h at 4°C; washes with 500 mM NaCl; immunoblot (Strep-tagged molecule held, HA-GLUT detected)
CD151, Strep-tagged = target: T1, CD151, Strep-tagged; assay: as above
TM4SF18, Strep-tagged = target: T2, TM4SF18, Strep-tagged; assay: as above

| binding [3] | binding [4] | binding (CD151, Strep-tagged) | binding (TM4SF18, Strep-tagged) | Molecule | binding [1] | binding [2] |
| --- | --- | --- | --- | --- | --- | --- |
| binds |  |  |  | GLUT1 in SNU449 hepatocytes (from UniProt P11166 1-492) | no binding (condition: after FBS repletion) | no binding (condition: after glucose repletion) |
|  | binds |  |  | HA-GLUT9 (protein, UniProt Q9NRM0 1-540) MARKQNRNSKELGLVPLTDDTSHAGPPGPGRALLECDHLRSGVPGGRRRKDWSCSLLVASLAGAFGSSFLYGYNLSVVNAPTPYIKAFYNESWERRHGRPIDPDTLTLLWSVTVSIFAIGGLVGTLIVKMIGKVLGRKHTLLANNGFAISAALLMACSLQAGAFEMLIVGRFIMGIDGGVALSVLPMYLSEISPKEIRGSLGQVTAIFICIGVFTGQLLGLPELLGKESTWPYLFGVIVVPAVVQLLSLPFLPDSPRYLLLEKHNEARAVKAFQTFLGKADVSQEVEEVLAESRVQRSIRLVSVLELLRAPYVRWQVVTVIVTMACYQLCGLNAIWFYTNSIFGKAGIPPAKIPYVTLSTGGIETLAAVFSGLVIEHLGRRPLLIGGFGLMGLFFGTLTITLTLQDHAPWVPYLSIVGILAIIASFCSGPGGIPFILTGEFFQQSQRPAAFIIAGTVNWLSNFAVGLLFPFIQKSLDTYCFLVFATICITGAIYLYFVLPETKNRTYAEISQAFSKRNKAYPPEEKIDSAVTDGKINGRP |  |  |
|  | binds | no binding | no binding | HA-GLUT4 (protein, UniProt P14672 1-509) MPSGFQQIGSEDGEPPQQRVTGTLVLAVFSAVLGSLQFGYNIGVINAPQKVIEQSYNETWLGRQGPEGPSSIPPGTLTTLWALSVAIFSVGGMISSFLIGIISQWLGRKRAMLVNNVLAVLGGSLMGLANAAASYEMLILGRFLIGAYSGLTSGLVPMYVGEIAPTHLRGALGTLNQLAIVIGILIAQVLGLESLLGTASLWPLLLGLTVLPALLQLVLLPFCPESPRYLYIIQNLEGPARKSLKRLTGWADVSGVLAELKDEKRKLERERPLSLLQLLGSRTHRQPLIIAVVLQLSQQLSGINAVFYYSTSIFETAGVGQPAYATIGAGVVNTVFTLVSVLLVERAGRRTLHLLGLAGMCGCAILMTVALLLLERVPAMSYVSIVAIFGFVAFFEIGPGPIPWFIVAELFSQGPRPAAMAVAGFSNWTSNFIIGMGFQYVAEAMGPYVFLLFAVLLLGFFIFTFLRVPETRGRTFDQISAAFHRTPSLLEQEVKPSTELEYLGPDEND |  |  |
